Some of the results follow.
Columns and labels:
Test in all cases: log2 fold change, soluble protein after heating vs DMSO (PISA); higher = thermal stabilisation; K562 cells, 10 uM, 30 min; active = over 0.2 and 3.5 SD of the protein, either way, in both replicates (recomputed)
[1] = compound: COC1=CC=C(C=C1)CN2C=CC3=C2C=C(C=C3)C(=O)NO
Summary of the method: (§1)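 K562 cells at 2×10^6 cells/mL were given 10 μM compound for 30 min. Aliquots then went through 3 min of heating across 48°C-58°C, were pooled, and were extracted in PBS with 0.5% NP-40 at 4°C, and the supernatant after 21,000xg for 90 min was quantified by TMTpro 16plex LC-MS/MS with channel sums equalised. Thermal stability relative to control samples, from duplicates, is given as log2 fold change.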

Amino acid sequences for entries named in this document (tags omitted). A change or cut given only in a name is not applied to a line headed by its entry.
UniProt P01008, whole entry, looked up: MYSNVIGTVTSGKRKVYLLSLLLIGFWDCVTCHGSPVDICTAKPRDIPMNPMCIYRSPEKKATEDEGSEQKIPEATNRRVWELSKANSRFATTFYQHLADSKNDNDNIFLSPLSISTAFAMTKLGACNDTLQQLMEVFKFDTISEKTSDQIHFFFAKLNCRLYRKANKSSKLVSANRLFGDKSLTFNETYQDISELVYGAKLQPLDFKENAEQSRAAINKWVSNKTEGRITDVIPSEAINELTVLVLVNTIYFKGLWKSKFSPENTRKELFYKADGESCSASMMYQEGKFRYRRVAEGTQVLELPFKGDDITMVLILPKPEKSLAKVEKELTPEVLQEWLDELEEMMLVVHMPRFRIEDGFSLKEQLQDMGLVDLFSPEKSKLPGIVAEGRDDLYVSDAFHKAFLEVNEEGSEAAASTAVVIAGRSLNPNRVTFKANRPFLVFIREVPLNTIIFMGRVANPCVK
UniProt Q01105, whole entry, looked up: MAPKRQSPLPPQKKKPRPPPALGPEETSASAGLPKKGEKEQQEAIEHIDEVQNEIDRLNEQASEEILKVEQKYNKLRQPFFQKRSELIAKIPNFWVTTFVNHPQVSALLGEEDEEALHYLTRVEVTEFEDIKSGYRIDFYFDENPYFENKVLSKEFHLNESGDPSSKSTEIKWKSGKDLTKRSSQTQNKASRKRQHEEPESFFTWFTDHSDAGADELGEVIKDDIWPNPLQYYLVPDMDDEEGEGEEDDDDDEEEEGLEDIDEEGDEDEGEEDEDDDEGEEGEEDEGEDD
UniProt Q5FBB7: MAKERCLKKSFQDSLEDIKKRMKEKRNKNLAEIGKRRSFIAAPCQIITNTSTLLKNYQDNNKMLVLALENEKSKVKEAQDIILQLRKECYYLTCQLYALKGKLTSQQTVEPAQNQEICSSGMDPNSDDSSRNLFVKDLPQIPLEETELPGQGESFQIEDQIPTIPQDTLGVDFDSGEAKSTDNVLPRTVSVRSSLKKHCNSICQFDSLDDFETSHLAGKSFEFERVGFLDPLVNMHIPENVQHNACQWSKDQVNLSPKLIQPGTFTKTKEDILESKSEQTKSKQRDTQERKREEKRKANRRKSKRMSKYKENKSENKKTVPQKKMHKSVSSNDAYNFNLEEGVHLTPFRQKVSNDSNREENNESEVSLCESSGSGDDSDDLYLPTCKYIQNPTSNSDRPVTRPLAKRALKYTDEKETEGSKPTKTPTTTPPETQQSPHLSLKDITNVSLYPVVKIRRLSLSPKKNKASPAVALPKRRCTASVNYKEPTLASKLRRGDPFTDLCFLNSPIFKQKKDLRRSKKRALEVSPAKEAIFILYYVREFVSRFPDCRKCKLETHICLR
UniProt P50452: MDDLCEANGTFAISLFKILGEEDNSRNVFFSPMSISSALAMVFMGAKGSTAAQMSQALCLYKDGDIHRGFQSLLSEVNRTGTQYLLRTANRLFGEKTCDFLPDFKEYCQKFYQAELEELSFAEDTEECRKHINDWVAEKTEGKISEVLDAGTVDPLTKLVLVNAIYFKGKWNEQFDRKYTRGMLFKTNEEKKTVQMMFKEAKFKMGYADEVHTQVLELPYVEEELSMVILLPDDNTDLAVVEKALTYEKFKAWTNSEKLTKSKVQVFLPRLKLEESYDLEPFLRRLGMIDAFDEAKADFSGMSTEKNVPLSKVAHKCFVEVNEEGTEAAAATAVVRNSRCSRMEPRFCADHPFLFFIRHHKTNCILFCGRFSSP
UniProt P30740: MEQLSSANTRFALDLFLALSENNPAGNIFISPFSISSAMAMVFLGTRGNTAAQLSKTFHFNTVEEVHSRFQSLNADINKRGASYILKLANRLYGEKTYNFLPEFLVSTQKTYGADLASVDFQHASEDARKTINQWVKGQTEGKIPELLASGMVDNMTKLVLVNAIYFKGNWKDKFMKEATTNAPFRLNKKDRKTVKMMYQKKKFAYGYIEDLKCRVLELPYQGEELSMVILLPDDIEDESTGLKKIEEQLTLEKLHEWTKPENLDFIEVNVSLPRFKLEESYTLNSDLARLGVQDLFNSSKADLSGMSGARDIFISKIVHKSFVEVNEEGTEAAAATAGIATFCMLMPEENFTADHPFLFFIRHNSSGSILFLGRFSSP
UniProt O75533, whole entry, looked up: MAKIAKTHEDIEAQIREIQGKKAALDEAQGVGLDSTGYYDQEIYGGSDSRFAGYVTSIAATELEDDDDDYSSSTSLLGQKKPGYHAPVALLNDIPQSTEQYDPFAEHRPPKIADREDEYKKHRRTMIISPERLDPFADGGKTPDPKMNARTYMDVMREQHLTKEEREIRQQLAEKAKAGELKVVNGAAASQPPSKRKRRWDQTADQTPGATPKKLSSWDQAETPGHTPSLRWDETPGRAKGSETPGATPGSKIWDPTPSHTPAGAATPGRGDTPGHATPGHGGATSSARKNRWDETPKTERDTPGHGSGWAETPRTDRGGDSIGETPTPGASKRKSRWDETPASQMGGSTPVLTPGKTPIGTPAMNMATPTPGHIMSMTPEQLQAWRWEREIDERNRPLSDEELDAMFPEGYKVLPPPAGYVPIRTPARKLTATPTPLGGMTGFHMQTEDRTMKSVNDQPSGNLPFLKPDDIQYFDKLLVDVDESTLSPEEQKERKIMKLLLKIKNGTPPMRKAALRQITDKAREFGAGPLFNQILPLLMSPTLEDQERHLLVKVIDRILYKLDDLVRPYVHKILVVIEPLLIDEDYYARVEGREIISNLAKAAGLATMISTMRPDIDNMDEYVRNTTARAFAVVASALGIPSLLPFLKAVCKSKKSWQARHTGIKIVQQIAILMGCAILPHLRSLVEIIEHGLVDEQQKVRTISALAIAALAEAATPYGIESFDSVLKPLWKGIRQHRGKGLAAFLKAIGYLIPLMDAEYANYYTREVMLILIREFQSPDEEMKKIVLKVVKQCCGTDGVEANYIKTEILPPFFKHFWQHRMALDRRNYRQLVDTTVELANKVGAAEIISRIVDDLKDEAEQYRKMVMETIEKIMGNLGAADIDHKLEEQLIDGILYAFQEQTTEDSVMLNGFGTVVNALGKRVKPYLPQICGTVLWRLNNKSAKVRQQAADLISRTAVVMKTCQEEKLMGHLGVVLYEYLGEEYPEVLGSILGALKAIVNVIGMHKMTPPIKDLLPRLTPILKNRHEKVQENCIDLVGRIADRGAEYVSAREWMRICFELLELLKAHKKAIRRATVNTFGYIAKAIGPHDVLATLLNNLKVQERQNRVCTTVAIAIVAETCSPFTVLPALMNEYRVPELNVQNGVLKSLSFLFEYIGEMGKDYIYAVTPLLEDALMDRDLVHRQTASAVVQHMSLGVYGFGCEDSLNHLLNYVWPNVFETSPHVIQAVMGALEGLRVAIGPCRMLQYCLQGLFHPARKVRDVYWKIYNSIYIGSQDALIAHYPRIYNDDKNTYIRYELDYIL
UniProt P08697: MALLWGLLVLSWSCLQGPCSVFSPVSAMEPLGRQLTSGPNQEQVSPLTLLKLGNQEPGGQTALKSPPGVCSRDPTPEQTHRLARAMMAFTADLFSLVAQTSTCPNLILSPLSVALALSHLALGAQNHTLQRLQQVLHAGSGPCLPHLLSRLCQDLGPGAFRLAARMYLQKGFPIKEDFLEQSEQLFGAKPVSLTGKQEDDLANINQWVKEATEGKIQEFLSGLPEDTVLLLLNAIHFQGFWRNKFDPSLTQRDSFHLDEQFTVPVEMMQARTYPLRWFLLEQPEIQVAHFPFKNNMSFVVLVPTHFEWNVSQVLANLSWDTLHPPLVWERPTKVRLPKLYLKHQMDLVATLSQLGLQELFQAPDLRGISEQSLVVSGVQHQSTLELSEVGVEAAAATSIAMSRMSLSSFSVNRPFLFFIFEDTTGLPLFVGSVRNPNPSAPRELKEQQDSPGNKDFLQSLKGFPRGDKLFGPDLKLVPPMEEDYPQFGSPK
UniProt Q15459: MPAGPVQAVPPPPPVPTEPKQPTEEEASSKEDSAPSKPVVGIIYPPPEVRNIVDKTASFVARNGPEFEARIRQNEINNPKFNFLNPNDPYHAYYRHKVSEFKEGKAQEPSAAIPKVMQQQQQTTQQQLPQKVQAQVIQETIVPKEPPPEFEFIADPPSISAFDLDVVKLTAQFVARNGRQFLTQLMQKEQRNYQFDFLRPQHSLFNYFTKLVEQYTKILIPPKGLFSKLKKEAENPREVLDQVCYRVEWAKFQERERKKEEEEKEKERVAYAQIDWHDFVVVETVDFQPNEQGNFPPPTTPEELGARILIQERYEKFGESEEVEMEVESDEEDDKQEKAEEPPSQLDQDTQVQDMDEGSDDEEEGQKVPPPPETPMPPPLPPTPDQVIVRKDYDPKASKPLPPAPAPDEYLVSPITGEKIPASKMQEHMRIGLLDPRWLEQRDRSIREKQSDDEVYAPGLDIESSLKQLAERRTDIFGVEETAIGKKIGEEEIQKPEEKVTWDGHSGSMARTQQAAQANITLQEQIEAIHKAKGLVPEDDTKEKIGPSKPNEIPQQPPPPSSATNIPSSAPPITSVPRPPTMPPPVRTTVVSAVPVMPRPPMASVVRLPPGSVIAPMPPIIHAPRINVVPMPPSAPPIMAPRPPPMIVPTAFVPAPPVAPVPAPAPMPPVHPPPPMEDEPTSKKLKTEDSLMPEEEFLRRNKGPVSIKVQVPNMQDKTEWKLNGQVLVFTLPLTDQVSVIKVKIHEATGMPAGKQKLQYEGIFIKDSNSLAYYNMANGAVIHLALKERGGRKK
UniProt P36955: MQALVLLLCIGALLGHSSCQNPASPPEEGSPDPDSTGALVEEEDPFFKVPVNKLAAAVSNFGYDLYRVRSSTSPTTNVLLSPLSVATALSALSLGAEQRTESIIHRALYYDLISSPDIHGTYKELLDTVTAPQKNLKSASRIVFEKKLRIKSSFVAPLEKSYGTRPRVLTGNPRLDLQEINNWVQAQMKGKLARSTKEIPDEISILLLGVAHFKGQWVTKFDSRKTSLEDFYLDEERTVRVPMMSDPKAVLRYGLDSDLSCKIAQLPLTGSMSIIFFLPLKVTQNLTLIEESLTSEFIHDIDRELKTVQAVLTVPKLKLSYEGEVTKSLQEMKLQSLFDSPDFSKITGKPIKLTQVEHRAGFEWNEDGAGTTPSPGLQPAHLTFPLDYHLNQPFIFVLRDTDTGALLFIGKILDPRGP
UniProt Q9UJC5: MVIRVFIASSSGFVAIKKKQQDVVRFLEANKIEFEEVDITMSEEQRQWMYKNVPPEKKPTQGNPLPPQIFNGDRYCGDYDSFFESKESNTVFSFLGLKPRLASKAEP
UniProt Q8N6T7, whole entry, looked up: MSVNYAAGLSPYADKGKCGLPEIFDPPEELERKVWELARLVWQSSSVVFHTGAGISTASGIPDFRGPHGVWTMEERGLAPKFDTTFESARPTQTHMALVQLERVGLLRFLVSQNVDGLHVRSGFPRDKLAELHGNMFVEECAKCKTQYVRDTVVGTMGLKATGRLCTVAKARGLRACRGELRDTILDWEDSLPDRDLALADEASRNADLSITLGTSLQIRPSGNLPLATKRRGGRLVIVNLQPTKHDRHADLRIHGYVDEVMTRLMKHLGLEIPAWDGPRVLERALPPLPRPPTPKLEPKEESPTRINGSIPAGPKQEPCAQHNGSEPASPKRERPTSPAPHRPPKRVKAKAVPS
UniProt Q8NC51: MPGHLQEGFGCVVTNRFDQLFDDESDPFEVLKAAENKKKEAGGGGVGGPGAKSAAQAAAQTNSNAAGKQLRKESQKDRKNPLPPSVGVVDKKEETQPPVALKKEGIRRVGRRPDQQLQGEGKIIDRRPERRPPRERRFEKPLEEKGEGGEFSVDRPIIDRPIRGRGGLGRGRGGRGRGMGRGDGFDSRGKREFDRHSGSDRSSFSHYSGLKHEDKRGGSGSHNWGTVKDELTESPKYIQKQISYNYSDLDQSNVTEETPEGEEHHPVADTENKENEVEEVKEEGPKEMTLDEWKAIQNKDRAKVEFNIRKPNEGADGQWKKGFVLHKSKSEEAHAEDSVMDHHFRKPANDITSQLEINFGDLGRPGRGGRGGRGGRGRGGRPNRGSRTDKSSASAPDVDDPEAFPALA
UniProt Q9UHD8: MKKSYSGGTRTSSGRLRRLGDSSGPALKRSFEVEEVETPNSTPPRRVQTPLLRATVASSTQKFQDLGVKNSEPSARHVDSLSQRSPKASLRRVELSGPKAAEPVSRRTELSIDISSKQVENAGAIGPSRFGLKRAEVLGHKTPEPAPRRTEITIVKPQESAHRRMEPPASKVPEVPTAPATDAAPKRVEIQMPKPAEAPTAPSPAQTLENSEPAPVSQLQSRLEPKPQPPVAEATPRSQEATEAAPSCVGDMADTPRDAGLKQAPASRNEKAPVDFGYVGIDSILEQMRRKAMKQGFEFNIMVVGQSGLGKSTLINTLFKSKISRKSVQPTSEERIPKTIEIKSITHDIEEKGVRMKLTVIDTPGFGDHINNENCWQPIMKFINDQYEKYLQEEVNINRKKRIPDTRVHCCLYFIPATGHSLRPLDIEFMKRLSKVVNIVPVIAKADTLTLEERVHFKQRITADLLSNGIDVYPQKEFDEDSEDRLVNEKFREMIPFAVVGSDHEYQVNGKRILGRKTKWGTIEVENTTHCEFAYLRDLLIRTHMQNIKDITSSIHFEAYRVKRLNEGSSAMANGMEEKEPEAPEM

filanesib = compound: CON(C)C(=O)N1N=C(c2cc(F)ccc2F)S[C@@]1(CCCN)c1ccccc1 [filanesib]
Summary of the method: as §1

zotarolimus = compound: CO[C@H]1C[C@@H]2CC[C@@H](C)[C@@](O)(O2)C(=O)C(=O)N2CCCC[C@H]2C(=O)O[C@H]([C@H](C)C[C@@H]2CC[C@H](n3cnnn3)[C@H](OC)C2)CC(=O)[C@H](C)/C=C(\C)[C@@H](O)[C@@H](OC)C(=O)[C@H](C)C[C@H](C)/C=C/C=C/C=C/1C [zotarolimus]
Summary of the method: as §1

idasanutlin = compound: COc1cc(C(=O)O)ccc1NC(=O)[C@@H]1N[C@@H](CC(C)(C)C)[C@](C#N)(c2ccc(Cl)cc2F)[C@H]1c1cccc(Cl)c1F [idasanutlin]
Summary of the method: as §1

alisertib = compound: COc1cc(Nc2ncc3c(n2)-c2ccc(Cl)cc2C(c2c(F)cccc2OC)=NC3)ccc1C(=O)O [alisertib]
Summary of the method: as §1

[2] = compound: COc1cc2nc(-c3cc(F)ccc3O)nc(N[C@@H]3CNC[C@H]3C(C)(C)O)c2cc1OC
Summary of the method: as §1

gefitinib = compound: COc1cc2ncnc(Nc3ccc(F)c(Cl)c3)c2cc1OCCCN1CCOCC1 [gefitinib]
Summary of the method: as §1

[3] = compound: COc1cccc2cc(-c3nc([C@H]4CC[C@H](C(=O)O)CC4)n4ncnc(N)c34)[nH]c12
Summary of the method: as §1

lapatinib = compound: CS(=O)(=O)CCNCc1ccc(-c2ccc3ncnc(Nc4ccc(OCc5cccc(F)c5)c(Cl)c4)c3c2)o1 [lapatinib]
Summary of the method: as §1

pictilisib = compound: CS(=O)(=O)N1CCN(Cc2cc3nc(-c4cccc5[nH]ncc45)nc(N4CCOCC4)c3s2)CC1 [pictilisib]
Summary of the method: as §1

[4] = compound: CS(=O)(=O)c1ccc(-c2cnc(N)c(C(=O)Nc3ccccc3)n2)cc1
Summary of the method: as §1

crizotinib = compound: C[C@@H](Oc1cc(-c2cnn(C3CCNCC3)c2)cnc1N)c1c(Cl)ccc(F)c1Cl [crizotinib]
Summary of the method: as §1

[5] = compound: C[C@@H]1COCCN1C2=NC(=NC(=C2)C3(CC3)S(=O)(=O)C)C4=C5C=CNC5=CC=C4
Summary of the method: as §1

[6] = compound: C[C@H](C1=CC=C(C=C1)C(=O)NC2=C3C=CNC3=NC=C2)N
Summary of the method: as §1

duvelisib = compound: C[C@H](Nc1ncnc2nc[nH]c12)c1cc2cccc(Cl)c2c(=O)n1-c1ccccc1 [duvelisib]
Summary of the method: as §1

gandotinib = compound: Cc1cc(Nc2cc(CN3CCOCC3)c3nc(C)c(Cc4ccc(Cl)cc4F)n3n2)n[nH]1 [gandotinib]
Summary of the method: as §1

tozasertib = compound: Cc1cc(Nc2cc(N3CCN(C)CC3)nc(Sc3ccc(NC(=O)C4CC4)cc3)n2)n[nH]1 [tozasertib]
Summary of the method: as §1

[7] = compound: Cc1cc(SCc2sc(-c3ccc(C(F)(F)F)cc3)nc2C)ccc1OCC(=O)O
Summary of the method: as §1

doramapimod = compound: Cc1ccc(-n2nc(C(C)(C)C)cc2NC(=O)Nc2ccc(OCCN3CCOCC3)c3ccccc23)cc1 [doramapimod]
Summary of the method: as §1

ispinesib = compound: Cc1ccc(C(=O)N(CCCN)[C@@H](c2nc3cc(Cl)ccc3c(=O)n2Cc2ccccc2)C(C)C)cc1 [ispinesib]
Summary of the method: as §1

Measured: log2 fold change

SERPINC1 (UniProt P01008)
inactive: [1] -0.19 | filanesib 0.091 | zotarolimus -0.057 | idasanutlin 0.088 | alisertib -0.059 | [2] -0.1 | gefitinib -0.072 | [3] 0.353 | lapatinib 0.002 | pictilisib -0.061 | [4] 0.025 | crizotinib 0.002 | [5] 0.155 | [6] 0.289 | duvelisib -0.267 | gandotinib 0.045 | tozasertib -0.161 | [7] -0.094 | doramapimod 0.104 | ispinesib -0.076

SET isoform 2 (UniProt Q01105)
inactive: [1] 0.037 | filanesib -0.078 | zotarolimus 0.013 | idasanutlin 0.009 | alisertib -0.021 | [2] -0.031 | gefitinib 0.012 | [3] 0.068 | lapatinib 0.008 | pictilisib 0.012 | [4] -0.008 | crizotinib -0.003 | [5] 0.012 | [6] -0.076 | duvelisib -0.069 | gandotinib 0.034 | tozasertib -0.014 | [7] 0.015 | doramapimod -0.031 | ispinesib -0.047

SGO1 (UniProt Q5FBB7)
inactive: [1] -0.084 | filanesib 0.066 | zotarolimus 0.005 | idasanutlin -0.018 | alisertib -0.034 | [2] 0.015 | gefitinib 0.031 | [3] 0 | lapatinib 0.017 | pictilisib -0.018 | [4] 0.036 | crizotinib 0.056 | [5] -0.005 | [6] -0.028 | duvelisib 0.074 | gandotinib -0.034 | tozasertib -0.036 | [7] -0.033 | doramapimod -0.016 | ispinesib -0.043

SF3B4 (UniProt Q15427)
inactive: [1] -0.011 | filanesib 0.147 | zotarolimus -0.053 | idasanutlin 0.06 | alisertib -0.15 | [2] -0.018 | gefitinib -0.009 | [3] -0.086 | lapatinib 0.042 | pictilisib 0.001 | [4] -0.054 | crizotinib -0.006 | [5] -0.016 | [6] 0.07 | duvelisib -0.012 | gandotinib 0.055 | tozasertib 0.028 | [7] 0.001 | doramapimod 0.031 | ispinesib -0.038

SEMA4B (UniProt Q9NPR2)
inactive: [1] -0.096 | filanesib 0.02 | zotarolimus -0.214 | idasanutlin 0.063 | alisertib -0.09 | [2] 0.073 | gefitinib 0.185 | [3] 0.054 | lapatinib -0.027 | pictilisib 0.162 | [4] 0.039 | crizotinib -0.195 | [5] -0.143 | [6] 0.045 | duvelisib -0.013 | gandotinib -0.032 | tozasertib -0.012 | [7] -0.044 | doramapimod 0.074 | ispinesib -0.277

SERPINB8 (UniProt P50452)
inactive: [1] 0.04 | filanesib -0.002 | zotarolimus -0.071 | idasanutlin -0.026 | alisertib -0.255 | [2] 0.013 | gefitinib 0.049 | [3] 0.07 | lapatinib -0.001 | pictilisib -0.079 | [4] 0.004 | crizotinib 0.063 | [5] -0.042 | [6] -0.073 | duvelisib -0.043 | gandotinib 0.006 | tozasertib -0.06 | [7] -0.12 | doramapimod -0.072 | ispinesib 0.029

SERPINB1 (UniProt P30740)
inactive: [1] -0.023 | filanesib -0.076 | zotarolimus 0.01 | idasanutlin -0.077 | alisertib -0.008 | [2] 0.016 | gefitinib -0.011 | [3] 0.032 | lapatinib -0.022 | pictilisib -0.017 | [4] 0.013 | crizotinib -0.012 | [5] 0.073 | [6] -0.037 | duvelisib 0.025 | gandotinib -0.164 | tozasertib 0.011 | [7] 0.016 | doramapimod 0 | ispinesib 0.054

SF3B1 (UniProt O75533)
inactive: [1] 0.08 | filanesib 0.01 | zotarolimus 0.027 | idasanutlin 0.003 | alisertib -0.001 | [2] -0.044 | gefitinib 0.007 | [3] -0.013 | lapatinib 0.038 | pictilisib -0.068 | [4] -0.008 | crizotinib -0.027 | [5] 0.034 | [6] 0.04 | duvelisib -0.026 | gandotinib -0.064 | tozasertib 0.05 | [7] 0.089 | doramapimod -0.016 | ispinesib -0.07

SERPINF2 (UniProt P08697)
inactive: [1] -0.068 | filanesib 0.083 | zotarolimus -0.147 | idasanutlin 0.1 | alisertib 0.045 | [2] -0.167 | gefitinib -0.419 | [3] 0.227 | lapatinib -0.041 | pictilisib 0.041 | [4] -0.092 | crizotinib 0.087 | [5] 0.121 | [6] 0.023 | duvelisib -0.133 | gandotinib -0.288 | tozasertib 0.071 | [7] -0.17 | doramapimod 0.091 | ispinesib -0.199

SF3A1 (UniProt Q15459)
inactive: [1] 0.003 | filanesib 0.061 | zotarolimus -0.009 | idasanutlin -0.005 | alisertib -0.065 | [2] 0.054 | gefitinib 0.021 | [3] -0.034 | lapatinib 0.011 | pictilisib -0.042 | [4] 0 | crizotinib 0.067 | [5] 0.024 | [6] 0.022 | duvelisib 0.006 | gandotinib 0.096 | tozasertib 0.091 | [7] 0.038 | doramapimod -0.008 | ispinesib 0.099

SERPINF1 (UniProt P36955)
inactive: [1] -0.097 | filanesib 0.205 | zotarolimus -0.221 | idasanutlin 0.147 | alisertib 0.126 | [2] -0.062 | gefitinib 0.039 | [3] 0.016 | lapatinib 0.072 | pictilisib -0.077 | [4] -0.008 | crizotinib 0.09 | [5] -0.161 | [6] 0.058 | duvelisib -0.024 | gandotinib 0.09 | tozasertib -0.005 | [7] 0.013 | doramapimod 0.047 | ispinesib 0.148

SF3B3 (UniProt Q15393)
inactive: [1] -0.016 | filanesib 0.021 | zotarolimus 0.056 | idasanutlin -0.041 | alisertib -0.059 | [2] 0.029 | gefitinib -0.028 | [3] 0.014 | lapatinib 0.006 | pictilisib 0.046 | [4] -0.001 | crizotinib -0.027 | [5] 0 | [6] -0.015 | duvelisib 0.03 | gandotinib -0.061 | tozasertib 0.059 | [7] -0.003 | doramapimod -0.005 | ispinesib 0.068

SH3BGRL2 (UniProt Q9UJC5)
inactive: [1] -0.104 | filanesib -0.007 | zotarolimus -0.009 | idasanutlin 0.052 | alisertib -0.018 | [2] 0.04 | gefitinib -0.009 | [3] 0.052 | lapatinib 0.03 | pictilisib 0.086 | [4] 0.038 | crizotinib 0.039 | [5] 0.022 | [6] -0.12 | duvelisib 0.099 | gandotinib 0.007 | tozasertib 0.047 | [7] 0.068 | doramapimod -0.063 | ispinesib 0.002

Looked up one by one from the list above (2):
SERPINF2 (UniProt P08697)
inactive: [1] -0.068 | filanesib 0.083 | zotarolimus -0.147 | idasanutlin 0.1 | alisertib 0.045 | [2] -0.167 | gefitinib -0.419 | [3] 0.227 | lapatinib -0.041 | pictilisib 0.041 | [4] -0.092 | crizotinib 0.087 | [5] 0.121 | [6] 0.023 | duvelisib -0.133 | gandotinib -0.288 | tozasertib 0.071 | [7] -0.17 | doramapimod 0.091 | ispinesib -0.199

SERPINF1 (UniProt P36955)
inactive: [1] -0.097 | filanesib 0.205 | zotarolimus -0.221 | idasanutlin 0.147 | alisertib 0.126 | [2] -0.062 | gefitinib 0.039 | [3] 0.016 | lapatinib 0.072 | pictilisib -0.077 | [4] -0.008 | crizotinib 0.09 | [5] -0.161 | [6] 0.058 | duvelisib -0.024 | gandotinib 0.09 | tozasertib -0.005 | [7] 0.013 | doramapimod 0.047 | ispinesib 0.148

Carrying on.

SIRT6 (UniProt Q8N6T7)
inactive: [1] 0.034 | filanesib 0.085 | zotarolimus -0.007 | idasanutlin 0.038 | alisertib -0.046 | [2] 0.004 | gefitinib 0.064 | [3] -0.08 | lapatinib -0.036 | pictilisib 0.036 | [4] 0.01 | crizotinib 0.156 | [5] 0.19 | [6] 0.002 | duvelisib 0.092 | gandotinib 0.071 | tozasertib -0.063 | [7] -0.056 | doramapimod -0.075 | ispinesib -0.111

SERBP1 (UniProt Q8NC51)
inactive: [1] -0.107 | filanesib 0.184 | zotarolimus -0.02 | idasanutlin 0.115 | alisertib -0.038 | [2] -0.021 | gefitinib -0.003 | [3] -0.001 | lapatinib -0.038 | pictilisib -0.035 | [4] -0.052 | crizotinib 0.018 | [5] -0.198 | [6] 0.169 | duvelisib -0.038 | gandotinib -0.038 | tozasertib -0.051 | [7] -0.012 | doramapimod 0.059 | ispinesib -0.155

SEPTIN9 (UniProt Q9UHD8)
inactive: [1] -0.035 | filanesib -0.015 | zotarolimus -0.012 | idasanutlin 0.002 | alisertib 0.013 | [2] 0.033 | gefitinib 0.007 | [3] 0.044 | lapatinib -0.038 | pictilisib 0.024 | [4] 0.053 | crizotinib 0.009 | [5] 0.035 | [6] -0.06 | duvelisib 0.013 | gandotinib -0.06 | tozasertib 0.007 | [7] 0.017 | doramapimod -0.02 | ispinesib 0.07

From the supplement of paper PMC10849652
